Reference: the supplement of paper PMC7580552
Structures can show the parent of a compound that is named as a salt. The list shows a part of the results. Plates or batches differ in their baseline, so values are only roughly comparable.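 Biofilm, quantified by the absorbance of well-retained crystal violet, is assayed using the K-12 laboratory model grown unshaken in 96-well plates. Candidate specific biofilm inhibitors were drugs that sharply lowered staining yet reduced free-floating growth by less than 70%.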

System: Escherichia coli W3110
Test: biofilm formation (crystal violet staining) relative to untreated control; higher = more biofilm
Details: 10 µM; 20-24 h; 30 °C; TB

SMILES | biofilm formation [%]
COc1ccccc1OCC(O)COC(N)=O (configuration not stated) [Methocarbamol] | 58
Cc1cc(N)c2ccccc2[n+]1CCCCCCCCCC[n+]1c(C)cc(N)c2ccccc21 [Dequalinium dichloride] | 28
Nc1ccn([C@@H]2CS[C@H](CO)O2)c(=O)n1 [Lamivudine] | 69
NC1CCN(c2nc3c(cc2F)c(=O)c(C(=O)O)cn3-c2ccc(F)cc2F)C1 (configuration not stated) [Tosufloxacin hydrochloride] | 3
COC(=O)Nc1nc2cc([S+]([O-])c3ccccc3)ccc2[nH]1 (configuration not stated) [Oxfendazol] | 64
c1ccc(CNc2ncnc3nc[nH]c23)cc1 [Aminopurine, 6-benzyl] | 60
CN1Cc2c(N)cccc2C(c2ccccc2)C1 (configuration not stated) [Nomifensine maleate] | 45
CC(C)(O)c1ccccc1CC[C@@H](SCC1(CC(=O)O)CC1)c1cccc(/C=C/c2ccc3ccc(Cl)cc3n2)c1 [Montelukast] | 67
O=C(c1ccccc1)c1ccc2n1CCC2C(=O)O (configuration not stated) [Ketorolac tromethamine] | 57
CCOC(=O)[C@@](C)(N)Cc1ccc(O)c(O)c1 [Methyldopate hydrochloride] | 82
COc1c(N2CCNC(C)C2)c(F)cc2c(=O)c(C(=O)O)cn(C3CC3)c12 (configuration not stated) [Gatifloxacin] | 23
Cc1cc(C2CCCCC2)n(O)c(=O)c1 [Ciclopirox ethanolamine] | 92
COc1cc(C(=O)NS(=O)(=O)c2ccccc2C)ccc1Cc1cn(C)c2ccc(NC(=O)OC3CCCC3)cc12 [Zafirlukast] | 65
NS(=O)(=O)c1cc(C(=O)O)c(NCc2ccco2)cc1Cl [Furosemide] | 72
NC(=O)c1ncn([C@@H]2O[C@H](CO)[C@@H](O)[C@H]2O)n1 [Ribavirin] | 56
CCOC(=O)[C@H](CCc1ccccc1)N[C@@H](C)C(=O)N1[C@H](C(=O)O)C[C@@H]2CCC[C@@H]21 [Ramipril] | 82
CCOc1ccc2c(c1)C(C)=CC(C)(C)N2 [Ethoxyquin] | 63
CC(C)COCC(CN(Cc1ccccc1)c1ccccc1)N1CCCC1 (configuration not stated) [Bepridil hydrochloride] | 56
NS(=O)(=O)c1cc2c(cc1Cl)N=CNS2(=O)=O [Chlorothiazide] | 63
CN[C@H](CC(C)C)C(=O)N[C@H]1C(=O)N[C@@H](CC(N)=O)C(=O)N[C@H]2C(=O)N[C@H]3C(=O)N[C@H](C(=O)N[C@H](C(=O)O)c4cc(O)cc(O)c4-c4cc3ccc4O)[C@H](O)c3ccc(c(Cl)c3)Oc3cc2cc(c3O[C@@H]2O[C@H](CO)[C@@H](O)[C@H](O)[C@H]2O[C@H]2C[C@](C)(N)[C@H](O)[C@H](C)O2)Oc2ccc(cc2Cl)[C@H]1O [Vancomycin hydrochloride] | 30
CNS(=O)(=O)Cc1ccc2[nH]cc(CCN(C)C)c2c1 [Sumatriptan succinate] | 52
N[C@@H]1CCCCN(c2c(F)cc3c(=O)c(C(=O)O)cn(C4CC4)c3c2Cl)C1 [Besifloxacin hydrochloride] | 21
CC[C@H]1OC(=O)[C@H](C)[C@@H](O[C@H]2C[C@@](C)(OC)[C@@H](O)[C@H](C)O2)[C@H](C)[C@@H](O[C@@H]2O[C@H](C)C[C@H](N(C)C)[C@H]2O)[C@](C)(OC)C[C@@H](C)C(=O)[C@H](C)[C@@H](O)[C@]1(C)O [Clarithromycin] | 57
CCOc1ccccc1OCC1CNCCO1 (configuration not stated) [Viloxazine hydrochloride] | 69

In another format: entries from further up
SMILES,biofilm formation [%]
"c1ccc(CNc2ncnc3nc[nH]c23)cc1 [Aminopurine, 6-benzyl]",60
CN1Cc2c(N)cccc2C(c2ccccc2)C1 (configuration not stated) [Nomifensine maleate],45

More results

SMILES | biofilm formation [%]
CCCCC1=NC2(CCCC2)C(=O)N1Cc1ccc(-c2ccccc2-c2nnn[nH]2)cc1 [Irbesartan] | 78
CCCCOC(=O)c1ccc(N)cc1 [Butamben] | 86
N=C(N)NC(=O)c1nc(Cl)c(N)nc1N [Amiloride hydrochloride dihydrate] | 81
O=C1NCN(c2ccccc2)C12CCN(CCCC(c1ccc(F)cc1)c1ccc(F)cc1)CC2 [Fluspirilen] | 46
CC(C)(C)C(=O)OCOC(=O)[C@@H]1N2C(=O)[C@@H](NC(=O)[C@H](N)c3ccccc3)[C@H]2SC1(C)C [Pivampicillin] | 86
CCCCC(CC)CN1CN(CC(CC)CCCC)CC(C)(N)C1 (configuration not stated) [Hexetidine] | 79
COc1cc2c(cc1OC)C(=O)C(CC1CCN(Cc3ccccc3)CC1)C2 (configuration not stated) [Donepezil hydrochloride] | 64
O=C(CCCN1CCC(O)(c2ccc(Br)cc2)CC1)c1ccc(F)cc1 [Bromperidol] | 90
CO[C@@]1(NC(=O)Cc2cccs2)C(=O)N2C(C(=O)O)=C(COC(N)=O)CS[C@@H]21 [Cefoxitin sodium salt] | 15
CC(=O)c1ccc2c(c1)N(CCCN1CCC(CCO)CC1)c1ccccc1S2 [Piperacetazine] | 62
COc1cc(Cc2cnc(N)nc2N)cc(OC)c1OC [Trimethoprim] | 30
COCC1=C(C(=O)OC(C)OC(=O)OC(C)C)N2C(=O)[C@@H](NC(=O)/C(=N\OC)c3csc(N)n3)[C@H]2SC1 (some centres not stated) [Cefpodoxime proxetil] | 86
CCN(CC)CCOC(=O)C(c1ccccc1)C1CCCCC1 (configuration not stated) [Drofenine hydrochloride] | 80
Cn1c(=O)c2[nH]cnc2n(C)c1=O [Aminophylline] | 81
CS(=O)(=O)c1ccc(C2=C(c3ccccc3)C(=O)OC2)cc1 [Rofecoxib] | 84
Cc1ccnc2c1NC(=O)c1cccnc1N2C1CC1 [Nevirapine] | 77
CN(C)CCC=C1c2ccccc2CCc2ccccc21 [Amitryptiline hydrochloride] | 100
Cc1[nH]c(=O)c(C#N)cc1-c1ccncc1 [Milrinone] | 71
C[C@]12CC[C@H]3C(=CCc4cc(O)ccc43)[C@@H]1CCC2=O [Equilin] | 75
C=C[C@H]1CN2CC[C@H]1C[C@@H]2[C@@H](O)c1ccnc2ccc(OC)cc12 [Quinidine hydrochloride monohydrate] | 58
Cc1cccc(C)c1NC(=O)C1CCCCN1C (configuration not stated) [Mepivacaine hydrochloride] | 62
CN1C(C(=O)Nc2ccccn2)=C(O)c2sccc2S1(=O)=O [Tenoxicam] | 72
Cc1ncc([N+](=O)[O-])n1CC(O)CCl (configuration not stated) [Ornidazole] | 77
CO[C@H]1C[C@H](O[C@H]2[C@H](C)[C@@H](O[C@@H]3O[C@H](C)C[C@H](N(C)C)[C@H]3OC(C)=O)[C@@H](C)C[C@@]3(CO3)C(=O)[C@H](C)[C@@H](OC(C)=O)[C@@H](C)[C@@H](C)OC(=O)[C@@H]2C)O[C@@H](C)[C@@H]1OC(C)=O [Troleandomycin] | 54

Retrieved by compound from the entries so far:
SMILES | biofilm formation [%]
CC(=O)c1ccc2c(c1)N(CCCN1CCC(CCO)CC1)c1ccccc1S2 [Piperacetazine] | 62
Cc1cccc(C)c1NC(=O)C1CCCCN1C (configuration not stated) [Mepivacaine hydrochloride] | 62

Further records follow:

SMILES | biofilm formation [%]
Cc1cc(C(=O)NNCc2ccccc2)no1 [Isocarboxazid] | 77
Cn1c(=O)c2c(ncn2CC(=O)O)n(C)c1=O [Acefylline] | 50
CN(C)CC/C=C1\c2ccccc2CSc2ccccc21 [Dosulepin hydrochloride] | 85
CC(C)(Oc1ccc(Cl)cc1)C(=O)O [Clofibric acid] | 73
Nc1c(Br)cc(Br)cc1CN[C@H]1CC[C@H](O)CC1 [Ambroxol hydrochloride] | 45
Cn1ccnc1S [Methimazole] | 78
CC(C)(Sc1cc(C(C)(C)C)c(O)c(C(C)(C)C)c1)Sc1cc(C(C)(C)C)c(O)c(C(C)(C)C)c1 [Probucol] | 93
CCN1C(=O)NC(c2ccccc2)C1=O (configuration not stated) [Ethotoin] | 66
CN1CCC(=C2c3ccccc3CC(=O)c3sccc32)CC1 [Ketotifen fumarate] | 83
CN1CCCC(CC2c3ccccc3Sc3ccccc32)C1 (configuration not stated) [Metixene hydrochloride] | 97
COc1ccccc1N1CCN(CC(O)COc2cccc3ccccc23)CC1 (configuration not stated) [Naftopidil dihydrochloride] | 67
COc1ccc2c(c1)N(C[C@H](C)CN(C)C)c1ccccc1S2 [Methotrimeprazine maleat salt] | 81
CCCN(CCC)C(=O)C(CCC(=O)O)NC(=O)c1ccccc1 (configuration not stated) [Proglumide] | 108
COc1cc(OC)c(C(=O)CCCN2CCCC2)c(OC)c1 [Buflomedil hydrochloride] | 66
N#CC(c1ccc(Cl)cc1)c1c(Cl)cc(-n2ncc(=O)[nH]c2=O)cc1Cl (configuration not stated) [Diclazuril] | 104
CCC(Cc1c(I)cc(I)c(N)c1I)C(=O)O (configuration not stated) [Iopanoic acid] | 87
CCC(NC(C)C)C(O)c1ccc(O)c(O)c1 (configuration not stated) [Isoetharine mesylate salt] | 62
CN1CCc2cccc3c2[C@H]1Cc1ccc(O)c(O)c1-3 [R(-) Apomorphine hydrochloride hemihydrate] | 12
CO[C@@]1(NC(=O)CSCC#N)C(=O)N2C(C(=O)O)=C(CSc3nnnn3C)CS[C@@H]21 [Cefmetazole sodium salt] | 11
C[C@@H]1[C@H](O)[C@@H](C)/C=C/C=C/C=C/C=C/C=C/C=C/C=C/[C@H](O[C@@H]2O[C@H](C)[C@@H](O)[C@H](N)[C@@H]2O)C[C@@H]2O[C@](O)(C[C@@H](O)C[C@@H](O)[C@H](O)CC[C@@H](O)C[C@@H](O)CC(=O)O[C@H]1C)C[C@H](O)[C@H]2C(=O)O [Amphotericin B] | 75
CCOC(=O)C(C)(C)Oc1ccc(Cl)cc1 [Clofibrate] | 107
CC(C)NC[C@H](O)COc1ccc(CC(N)=O)cc1 [(S)-(-)-Atenolol] | 58
CC(C)(S)C(N)C(=O)O (racemic) [D,L-Penicillamine] | 68
CC(=O)N(O)CCCCCNC(=O)CCC(=O)N(O)CCCCCNC(=O)CCC(=O)N(O)CCCCCN [Deferoxamine mesylate] | 103
